# Experimental data published in the supplement of paper PMC8728848.
# The list shows a part of the results.
# Columns and labels:
# Test in all cases: glycan array binding signal (z-score within array); higher = stronger binding
# Conditions in all cases: glycan notation: IUPAC condensed, linker removed
# [1] = molecular target: GlcNAc(b1-3)Gal(b1-4)GlcNAc(b1-3)Gal(b1-4)GlcNAc(b1-2)Man(a1-3)[GlcNAc(b1-3)Gal(b1-4)GlcNAc(b1-3)Gal(b1-4)GlcNAc(b1-2)Man(a1-6)]Man(b1-4)GlcNAc(b1-4)GlcNAc
# How it was run: (§1)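 The binding signal is a Z-score computed within each array. Data were drawn from 3228 arrays in the Consortium for Functional Glycomics database, restricted to those with a known protein sequence. Scores were averaged over arrays of the same protein sequence at different concentrations or buffers, and over linkers, and negative values can be taken as non-binding.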
# [2] = molecular target: GlcNAc(b1-3)Gal(b1-4)GlcNAc(b1-3)Gal(b1-4)GlcNAc(b1-2)Man(a1-3)[GlcNAc(b1-3)Gal(b1-4)GlcNAc(b1-3)Gal(b1-4)GlcNAc(b1-2)Man(a1-6)]Man(b1-4)GlcNAc(b1-4)[Fuc(a1-6)]GlcNAc
# How it was run: as §1
# [3] = molecular target: GlcNAc(b1-3)Gal(b1-4)GlcNAc(b1-3)Gal(b1-4)GlcNAc(b1-2)[GlcNAc(b1-3)Gal(b1-4)GlcNAc(b1-3)Gal(b1-4)GlcNAc(b1-6)]Man(a1-6)[GlcNAc(b1-3)Gal(b1-4)GlcNAc(b1-3)Gal(b1-4)GlcNAc(b1-2)Man(a1-3)]Man(b1-4)GlcNAc(b1-4)[Fuc(a1-6)]GlcNAc
# How it was run: as §1
# [4] = molecular target: GlcNAc(b1-3)Gal(b1-4)GlcNAc(b1-3)Gal(b1-4)GlcNAc(b1-3)Gal(b1-4)GlcNAc(b1-2)Man(a1-3)[GlcNAc(b1-3)Gal(b1-4)GlcNAc(b1-3)Gal(b1-4)GlcNAc(b1-3)Gal(b1-4)GlcNAc(b1-2)Man(a1-6)]Man(b1-4)GlcNAc(b1-4)GlcNAc
# How it was run: as §1
# [5] = molecular target: GlcNAc(b1-3)Gal(b1-4)GlcNAc(b1-3)Gal(b1-4)GlcNAc(b1-3)Gal(b1-4)GlcNAc(b1-2)Man(a1-3)[GlcNAc(b1-3)Gal(b1-4)GlcNAc(b1-3)Gal(b1-4)GlcNAc(b1-3)Gal(b1-4)GlcNAc(b1-2)Man(a1-6)]Man(b1-4)GlcNAc(b1-4)[Fuc(a1-6)]GlcNAc
# How it was run: as §1
# [6] = molecular target: GlcNAc(b1-3)Gal(b1-4)GlcNAc(b1-3)Gal(b1-4)GlcNAc(b1-3)Gal(b1-4)GlcNAc(b1-2)[GlcNAc(b1-3)Gal(b1-4)GlcNAc(b1-3)Gal(b1-4)GlcNAc(b1-3)Gal(b1-4)GlcNAc(b1-6)]Man(a1-6)[GlcNAc(b1-3)Gal(b1-4)GlcNAc(b1-3)Gal(b1-4)GlcNAc(b1-3)Gal(b1-4)GlcNAc(b1-2)Man(a1-3)]Man(b1-4)GlcNAc(b1-4)[Fuc(a1-6)]GlcNAc
# How it was run: as §1
# [7] = molecular target: GlcNAc(b1-3)Gal(b1-4)GlcNAc(b1-3)Gal(b1-4)GlcNAc(b1-3)Gal(b1-4)GlcNAc(b1-3)Gal(b1-4)GlcNAc(b1-2)Man(a1-3)[GlcNAc(b1-3)Gal(b1-4)GlcNAc(b1-3)Gal(b1-4)GlcNAc(b1-3)Gal(b1-4)GlcNAc(b1-3)Gal(b1-4)GlcNAc(b1-2)Man(a1-6)]Man(b1-4)GlcNAc(b1-4)GlcNAc
# How it was run: as §1
# [8] = molecular target: GlcNAc(b1-3)Gal(b1-4)GlcNAc(b1-3)Gal(b1-4)GlcNAc(b1-3)Gal(b1-4)GlcNAc(b1-3)Gal(b1-4)GlcNAc(b1-2)Man(a1-3)[GlcNAc(b1-3)Gal(b1-4)GlcNAc(b1-3)Gal(b1-4)GlcNAc(b1-3)Gal(b1-4)GlcNAc(b1-3)Gal(b1-4)GlcNAc(b1-2)Man(a1-6)]Man(b1-4)GlcNAc(b1-4)[Fuc(a1-6)]GlcNAc
# How it was run: as §1
# [9] = molecular target: GlcNAc(b1-3)Gal(b1-4)GlcNAc(b1-3)Gal(b1-4)GlcNAc(b1-3)Gal(b1-4)GlcNAc(b1-3)Gal(b1-4)GlcNAc(b1-2)[GlcNAc(b1-3)Gal(b1-4)GlcNAc(b1-3)Gal(b1-4)GlcNAc(b1-3)Gal(b1-4)GlcNAc(b1-3)Gal(b1-4)GlcNAc(b1-6)]Man(a1-6)[GlcNAc(b1-3)Gal(b1-4)GlcNAc(b1-3)Gal(b1-4)GlcNAc(b1-3)Gal(b1-4)GlcNAc(b1-3)Gal(b1-4)GlcNAc(b1-2)Man(a1-3)]Man(b1-4)GlcNAc(b1-4)[Fuc(a1-6)]GlcNAc
# How it was run: as §1
# [10] = molecular target: GlcNAc(b1-3)Gal(b1-4)GlcNAc(b1-3)Gal(b1-4)GlcNAc(b1-3)GalNAc
# How it was run: as §1
# [11] = molecular target: GlcNAc(b1-3)Gal(b1-4)GlcNAc(b1-3)GalNAc
# How it was run: as §1
# [12] = molecular target: GlcNAc(b1-3)Gal(b1-4)GlcNAc(b1-3)[GlcNAc(b1-3)Gal(b1-4)GlcNAc(b1-3)]GalNAc
# How it was run: as §1
# [13] = molecular target: GlcNAc(b1-3)Gal(b1-4)GlcNAc(b1-6)[Gal(b1-3)]GalNAc
# How it was run: as §1
# [14] = molecular target: GlcNAc(b1-3)Gal(b1-4)GlcNAc(b1-6)[GlcNAc(b1-3)Gal(b1-3)]GalNAc
# How it was run: as §1
# [15] = molecular target: GlcNAc(b1-3)Gal(b1-4)GlcNAc(b1-6)[GlcNAc(b1-3)]Gal(b1-4)GlcNAc
# How it was run: as §1
# GlcNAc(b1-3)GalNAc = molecular target: GlcNAc(b1-3)GalNAc
# How it was run: as §1
# GlcNAc(b1-3)Man = molecular target: GlcNAc(b1-3)Man
# How it was run: as §1
# [16] = molecular target: GlcNAc(b1-3)[GlcNAc(b1-4)][GlcNAc(b1-6)]GlcNAc
# How it was run: as §1
# [17] = molecular target: GlcNAc(b1-3)[GlcNAc(b1-6)]Gal(b1-4)GlcNAc
# How it was run: as §1
# [18] = molecular target: GlcNAc(b1-3)[GlcNAc(b1-6)]GalNAc
# How it was run: as §1
# [19] = molecular target: GlcNAc(b1-4)Gal(b1-4)GlcNAc
# How it was run: as §1
# GlcNAc(b1-4)GlcNAc = molecular target: GlcNAc(b1-4)GlcNAc
# How it was run: as §1
# [20] = molecular target: GlcNAc(b1-4)GlcNAc(b1-4)GlcNAc
# How it was run: as §1
# [21] = molecular target: GlcNAc(b1-4)GlcNAc(b1-4)GlcNAc(b1-4)GlcNAc(b1-4)GlcNAc
# How it was run: as §1
# [22] = molecular target: GlcNAc(b1-4)GlcNAc(b1-4)GlcNAc(b1-4)GlcNAc(b1-4)GlcNAc(b1-4)GlcNAc
# How it was run: as §1
# [23] = molecular target: GlcNAc(b1-4)[GlcNAc(b1-6)]GalNAc
# How it was run: as §1
# [24] = molecular target: GlcNAc(b1-6)Gal(b1-4)GlcNAc
# How it was run: as §1
# GlcNAc(b1-6)GalNAc = molecular target: GlcNAc(b1-6)GalNAc
# How it was run: as §1
# GlcNAc3Prop(b1-4)GlcNAc = molecular target: GlcNAc3Prop(b1-4)GlcNAc
# How it was run: as §1
# [25] = molecular target: GlcNAc6S(b1-3)Gal(b1-4)GlcNAc
# How it was run: as §1
# Kdn(a2-3)Gal(b1-3)GalNAc = molecular target: Kdn(a2-3)Gal(b1-3)GalNAc
# How it was run: as §1
# Kdn(a2-3)Gal(b1-3)GlcNAc = molecular target: Kdn(a2-3)Gal(b1-3)GlcNAc
# How it was run: as §1
# Kdn(a2-3)Gal(b1-4)Glc = molecular target: Kdn(a2-3)Gal(b1-4)Glc
# How it was run: as §1
# Kdn(a2-3)Gal(b1-4)GlcNAc = molecular target: Kdn(a2-3)Gal(b1-4)GlcNAc
# How it was run: as §1
# [26] = molecular target: Kdn(a2-3)Gal(b1-4)[Fuc(a1-3)]GlcNAc
# How it was run: as §1
# Kdn(a2-6)Gal(b1-4)GlcNAc = molecular target: Kdn(a2-6)Gal(b1-4)GlcNAc
# How it was run: as §1
# [27] = molecular target: Man(a1-2)Man(a1-2)Man(a1-3)Man
# How it was run: as §1
# [28] = molecular target: Man(a1-2)Man(a1-2)Man(a1-6)[Man(a1-3)]Man
# How it was run: as §1
binder,measurement,setting,value
"RbmA (Vibrio cholerae), A0A2H4NFB8 (protein) MSNFKGSIMNKRHYYLASCLALLFSTASYAEVDCELQPVIEANLSLNQNQLASNGGYISSQLGIRNESCETVKFKYWLSIKGPEGIYFPAKAVVGVDTAQQESDALTDGRMLNVTRGFWVPEYMADGKYTVSLQVVAENGEVFKANQEFVKGGDLNSLPELNGLTIDIKNQFGINSVESTGGFVPFTIDLNNGREGEAKVEFWMTAVGPDGLIIPVHSREKWMIIAGNTFSKVRGINFDKSYPAGEYTINAQVVDIVSGERVEQLMTVVKK",glycan array binding signal (z-score),[1],0.119
same,glycan array binding signal (z-score),[2],0.5
same,glycan array binding signal (z-score),[3],-0.798
same,glycan array binding signal (z-score),[4],-0.754
same,glycan array binding signal (z-score),[5],3.92
same,glycan array binding signal (z-score),[6],0.187
same,glycan array binding signal (z-score),[7],-0.195
same,glycan array binding signal (z-score),[8],2.9
same,glycan array binding signal (z-score),[9],0.175
same,glycan array binding signal (z-score),[10],-0.127
same,glycan array binding signal (z-score),[11],-0.49
same,glycan array binding signal (z-score),[12],-0.189
same,glycan array binding signal (z-score),[13],0.228
same,glycan array binding signal (z-score),[14],-0.475
same,glycan array binding signal (z-score),[15],-0.585
same,glycan array binding signal (z-score),GlcNAc(b1-3)GalNAc,0.312
same,glycan array binding signal (z-score),GlcNAc(b1-3)Man,0.188
same,glycan array binding signal (z-score),[16],0.095
same,glycan array binding signal (z-score),[17],0.022
same,glycan array binding signal (z-score),[18],-1.02
same,glycan array binding signal (z-score),[19],-1.05
same,glycan array binding signal (z-score),GlcNAc(b1-4)GlcNAc,0.102
same,glycan array binding signal (z-score),[20],-0.204
same,glycan array binding signal (z-score),[21],-0.707
same,glycan array binding signal (z-score),[22],0.006
same,glycan array binding signal (z-score),[23],-0.538
same,glycan array binding signal (z-score),[24],2.71
same,glycan array binding signal (z-score),GlcNAc(b1-6)GalNAc,-0.287
same,glycan array binding signal (z-score),GlcNAc3Prop(b1-4)GlcNAc,-0.321
same,glycan array binding signal (z-score),[25],0.755
same,glycan array binding signal (z-score),Kdn(a2-3)Gal(b1-3)GalNAc,1.16
same,glycan array binding signal (z-score),Kdn(a2-3)Gal(b1-3)GlcNAc,-0.742
same,glycan array binding signal (z-score),Kdn(a2-3)Gal(b1-4)Glc,-0.228
same,glycan array binding signal (z-score),Kdn(a2-3)Gal(b1-4)GlcNAc,-0.594
same,glycan array binding signal (z-score),[26],-0.555
same,glycan array binding signal (z-score),Kdn(a2-6)Gal(b1-4)GlcNAc,0.808
same,glycan array binding signal (z-score),[27],-0.772
same,glycan array binding signal (z-score),[28],-0.553

# Fetched one by one from the entries so far (two):
binder,measurement,setting,value
"RbmA (Vibrio cholerae), A0A2H4NFB8 (protein) MSNFKGSIMNKRHYYLASCLALLFSTASYAEVDCELQPVIEANLSLNQNQLASNGGYISSQLGIRNESCETVKFKYWLSIKGPEGIYFPAKAVVGVDTAQQESDALTDGRMLNVTRGFWVPEYMADGKYTVSLQVVAENGEVFKANQEFVKGGDLNSLPELNGLTIDIKNQFGINSVESTGGFVPFTIDLNNGREGEAKVEFWMTAVGPDGLIIPVHSREKWMIIAGNTFSKVRGINFDKSYPAGEYTINAQVVDIVSGERVEQLMTVVKK",glycan array binding signal (z-score),[17],0.022
same,glycan array binding signal (z-score),Kdn(a2-3)Gal(b1-4)Glc,-0.228
